# Measurements as given in US20130323248A1.
# Amino acid sequences for entries named in this document (tags omitted). A change or cut given only in a name is not applied to a line headed by its entry. Residues count along the entry.
# UniProt Q9NR61: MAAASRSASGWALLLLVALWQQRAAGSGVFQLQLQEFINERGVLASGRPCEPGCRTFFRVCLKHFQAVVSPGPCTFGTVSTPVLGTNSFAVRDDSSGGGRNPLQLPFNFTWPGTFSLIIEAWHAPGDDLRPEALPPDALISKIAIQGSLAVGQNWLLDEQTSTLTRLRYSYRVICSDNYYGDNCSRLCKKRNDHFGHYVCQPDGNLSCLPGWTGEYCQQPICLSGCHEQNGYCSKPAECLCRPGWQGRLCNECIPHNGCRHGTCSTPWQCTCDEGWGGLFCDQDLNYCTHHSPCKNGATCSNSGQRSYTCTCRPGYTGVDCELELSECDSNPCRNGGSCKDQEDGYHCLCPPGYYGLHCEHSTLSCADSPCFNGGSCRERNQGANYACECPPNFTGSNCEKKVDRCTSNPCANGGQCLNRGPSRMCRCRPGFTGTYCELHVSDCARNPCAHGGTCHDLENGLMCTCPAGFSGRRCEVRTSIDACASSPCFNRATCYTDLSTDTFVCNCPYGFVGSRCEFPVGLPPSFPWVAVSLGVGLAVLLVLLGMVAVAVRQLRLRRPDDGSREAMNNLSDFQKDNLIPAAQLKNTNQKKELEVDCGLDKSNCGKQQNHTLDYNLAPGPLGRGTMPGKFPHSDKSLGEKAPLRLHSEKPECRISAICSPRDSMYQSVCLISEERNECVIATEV
# human DLL-4 expressed on the surface of CHO-K1 cells (CHO-DLL-4 cells): residues 27-685 of Q9NR61
# recombinant human DLL4 (rhDLL4): residues 27-524 of Q9NR61
# Results are given in words; binding and its absence hold for the method and conditions named. Some entries that bind do so weakly or less than the wild type.
# B1: anti-DLL-4 antibody C5 (antibody, V domains shown)
# VH: QVQLQQSGPGLVKPSQTLSLTCAISGDSVSSNSAAWNWIRQSPSRGFEWLGRTEYRSKWYNDYAVSVESRITINPDTSKNHFSLQLNSVTPEDTAVYYCARDGNTFSFDYWGQGTLVTVSS
# VL: QSVVTQPPSVSAAPGQKVTISCSGGSSNIGNNYVSWYQQIPGTAPKLLIYDNNNRPSGIPDRFSGSKSGASATLGISGLQTGDEANYYCGAWDSTLSGYVFGTGTKLTVL
# B2: anti-DLL-4 antibody C10 (antibody, V domains shown)
# VH: QVQLVESGAEVKKPGASVKVSCKASGYTFTSYYMHWVRQAPQGLEWMGIINPSGGSTSYAQKFQGRVTMTRDTSTNTVYMELSSLRSEDTAVYYCARDVWGGYFDYWGQGTLVTVSS
# VL: QSVLTQPASVSGSPGQSITISCTGTSSDVGGYNYVSWYQQHPGKAPKLMIYDVTNRPSGVSNRFSGSKSGNTASLTISGLQAEDEADYYCSSYTSSSTVIFGGGTKLTVL
# How the values were obtained:
# [1] = target: recombinant human DLL4 (rhDLL4) (human) (UniProt Q9NR61); test: Octet; epitope mapping in relation to OMP21M18
# [2] = target: recombinant human DLL4 (rhDLL4) (human) (UniProt Q9NR61); test: Octet; rhDLL4 captured by an immobilized antibody, second antibody run
# [3] = target: human DLL-4 expressed on the surface of CHO-K1 cells (CHO-DLL-4 cells) (human) (UniProt Q9NR61); test: flow cytometry (HTFC) on CHO-K1 cells stably expressing DLL-4
Binder,binding [1],binding [2],binding [3]
B1,binds,binds,
B2,,,binds
